Results reported in the supplement of paper PMC10849652.
The list shows a part of the results.

Amino acid sequences for entries named in this document (tags omitted). A change or cut given only in a name is not applied to a line headed by its entry.
UniProt Q96F07, whole entry, looked up: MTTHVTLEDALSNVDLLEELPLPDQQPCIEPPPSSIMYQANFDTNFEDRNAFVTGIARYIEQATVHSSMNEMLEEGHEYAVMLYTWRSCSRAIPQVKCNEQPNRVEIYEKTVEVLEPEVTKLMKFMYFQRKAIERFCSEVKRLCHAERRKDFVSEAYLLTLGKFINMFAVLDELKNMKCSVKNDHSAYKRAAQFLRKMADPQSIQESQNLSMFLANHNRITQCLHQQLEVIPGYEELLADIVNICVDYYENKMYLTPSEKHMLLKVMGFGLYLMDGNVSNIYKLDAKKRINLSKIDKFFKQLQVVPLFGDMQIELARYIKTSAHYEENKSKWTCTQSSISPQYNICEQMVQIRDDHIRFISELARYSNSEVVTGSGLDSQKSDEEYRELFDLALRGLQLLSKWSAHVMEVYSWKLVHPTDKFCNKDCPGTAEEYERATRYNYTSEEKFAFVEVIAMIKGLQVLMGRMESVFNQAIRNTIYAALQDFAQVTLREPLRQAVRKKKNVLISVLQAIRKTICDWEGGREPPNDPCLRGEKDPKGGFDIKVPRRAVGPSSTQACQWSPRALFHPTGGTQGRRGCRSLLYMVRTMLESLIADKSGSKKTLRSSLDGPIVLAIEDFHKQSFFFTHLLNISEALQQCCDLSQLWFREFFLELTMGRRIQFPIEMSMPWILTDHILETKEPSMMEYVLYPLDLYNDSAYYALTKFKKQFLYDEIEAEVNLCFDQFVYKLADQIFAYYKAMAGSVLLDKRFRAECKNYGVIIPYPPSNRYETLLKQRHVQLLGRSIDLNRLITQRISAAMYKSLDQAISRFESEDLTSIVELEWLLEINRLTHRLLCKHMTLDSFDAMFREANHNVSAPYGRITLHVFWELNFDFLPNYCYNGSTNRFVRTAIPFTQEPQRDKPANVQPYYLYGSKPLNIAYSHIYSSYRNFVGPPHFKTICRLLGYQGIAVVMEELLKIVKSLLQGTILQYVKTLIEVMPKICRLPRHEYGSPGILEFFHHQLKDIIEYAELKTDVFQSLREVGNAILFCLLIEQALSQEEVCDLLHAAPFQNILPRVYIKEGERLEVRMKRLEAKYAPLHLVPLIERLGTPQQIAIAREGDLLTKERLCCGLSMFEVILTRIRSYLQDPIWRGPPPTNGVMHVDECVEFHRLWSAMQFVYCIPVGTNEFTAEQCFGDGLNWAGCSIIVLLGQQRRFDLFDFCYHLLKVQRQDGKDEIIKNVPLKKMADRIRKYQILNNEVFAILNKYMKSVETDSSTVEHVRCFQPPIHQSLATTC
UniProt A4D126: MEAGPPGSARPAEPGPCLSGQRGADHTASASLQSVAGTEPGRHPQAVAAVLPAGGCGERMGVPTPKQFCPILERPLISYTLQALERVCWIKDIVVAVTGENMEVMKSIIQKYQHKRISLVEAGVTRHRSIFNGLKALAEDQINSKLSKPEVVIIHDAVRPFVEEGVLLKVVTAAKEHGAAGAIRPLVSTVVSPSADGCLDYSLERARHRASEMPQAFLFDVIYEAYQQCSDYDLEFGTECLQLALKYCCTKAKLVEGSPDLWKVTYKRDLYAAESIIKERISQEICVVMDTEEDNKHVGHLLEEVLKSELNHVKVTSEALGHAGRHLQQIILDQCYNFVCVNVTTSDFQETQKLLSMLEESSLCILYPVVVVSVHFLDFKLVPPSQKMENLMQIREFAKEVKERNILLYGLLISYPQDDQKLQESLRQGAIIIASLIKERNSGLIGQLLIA
UniProt P33240: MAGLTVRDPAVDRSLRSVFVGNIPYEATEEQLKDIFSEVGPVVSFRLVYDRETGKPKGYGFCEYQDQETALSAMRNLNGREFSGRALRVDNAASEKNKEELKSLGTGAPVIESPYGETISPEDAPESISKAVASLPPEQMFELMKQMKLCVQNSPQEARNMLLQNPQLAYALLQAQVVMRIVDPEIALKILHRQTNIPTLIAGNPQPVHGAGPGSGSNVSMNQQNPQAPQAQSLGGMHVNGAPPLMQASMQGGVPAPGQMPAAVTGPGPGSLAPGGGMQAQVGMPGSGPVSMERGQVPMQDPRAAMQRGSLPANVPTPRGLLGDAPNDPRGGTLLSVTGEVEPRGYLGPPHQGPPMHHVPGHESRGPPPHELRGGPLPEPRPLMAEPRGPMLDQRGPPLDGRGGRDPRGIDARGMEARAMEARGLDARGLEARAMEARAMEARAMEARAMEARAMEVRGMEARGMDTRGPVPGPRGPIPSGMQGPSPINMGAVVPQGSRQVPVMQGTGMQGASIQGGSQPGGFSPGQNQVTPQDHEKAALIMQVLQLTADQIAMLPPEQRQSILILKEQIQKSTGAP
UniProt Q13619, whole entry, looked up: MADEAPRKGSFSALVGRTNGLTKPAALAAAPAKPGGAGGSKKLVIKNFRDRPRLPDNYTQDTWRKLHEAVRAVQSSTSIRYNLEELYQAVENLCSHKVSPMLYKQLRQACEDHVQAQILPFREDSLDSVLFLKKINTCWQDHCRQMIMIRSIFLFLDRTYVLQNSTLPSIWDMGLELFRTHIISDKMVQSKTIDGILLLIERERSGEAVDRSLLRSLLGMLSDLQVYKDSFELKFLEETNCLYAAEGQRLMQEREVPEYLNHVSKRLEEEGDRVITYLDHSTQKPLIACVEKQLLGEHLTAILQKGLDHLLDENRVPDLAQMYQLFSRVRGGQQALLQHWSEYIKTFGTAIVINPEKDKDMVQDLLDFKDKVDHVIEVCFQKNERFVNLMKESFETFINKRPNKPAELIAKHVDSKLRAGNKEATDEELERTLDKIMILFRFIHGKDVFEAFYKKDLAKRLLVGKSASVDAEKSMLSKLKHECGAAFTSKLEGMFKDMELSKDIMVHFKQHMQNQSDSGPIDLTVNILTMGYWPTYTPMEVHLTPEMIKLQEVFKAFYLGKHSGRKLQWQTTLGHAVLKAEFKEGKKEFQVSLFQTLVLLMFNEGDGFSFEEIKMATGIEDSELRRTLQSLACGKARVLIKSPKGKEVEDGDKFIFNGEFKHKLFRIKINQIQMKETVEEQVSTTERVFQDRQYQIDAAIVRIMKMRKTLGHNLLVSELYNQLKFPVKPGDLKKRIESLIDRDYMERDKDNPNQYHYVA
UniProt Q96C57: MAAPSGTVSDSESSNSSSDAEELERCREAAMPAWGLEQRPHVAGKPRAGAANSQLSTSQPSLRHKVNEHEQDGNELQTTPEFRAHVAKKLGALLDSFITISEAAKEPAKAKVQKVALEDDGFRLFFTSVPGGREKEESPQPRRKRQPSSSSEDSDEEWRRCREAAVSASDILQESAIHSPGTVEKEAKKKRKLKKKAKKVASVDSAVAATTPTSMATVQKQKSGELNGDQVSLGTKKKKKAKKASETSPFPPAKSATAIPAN
UniProt Q12996: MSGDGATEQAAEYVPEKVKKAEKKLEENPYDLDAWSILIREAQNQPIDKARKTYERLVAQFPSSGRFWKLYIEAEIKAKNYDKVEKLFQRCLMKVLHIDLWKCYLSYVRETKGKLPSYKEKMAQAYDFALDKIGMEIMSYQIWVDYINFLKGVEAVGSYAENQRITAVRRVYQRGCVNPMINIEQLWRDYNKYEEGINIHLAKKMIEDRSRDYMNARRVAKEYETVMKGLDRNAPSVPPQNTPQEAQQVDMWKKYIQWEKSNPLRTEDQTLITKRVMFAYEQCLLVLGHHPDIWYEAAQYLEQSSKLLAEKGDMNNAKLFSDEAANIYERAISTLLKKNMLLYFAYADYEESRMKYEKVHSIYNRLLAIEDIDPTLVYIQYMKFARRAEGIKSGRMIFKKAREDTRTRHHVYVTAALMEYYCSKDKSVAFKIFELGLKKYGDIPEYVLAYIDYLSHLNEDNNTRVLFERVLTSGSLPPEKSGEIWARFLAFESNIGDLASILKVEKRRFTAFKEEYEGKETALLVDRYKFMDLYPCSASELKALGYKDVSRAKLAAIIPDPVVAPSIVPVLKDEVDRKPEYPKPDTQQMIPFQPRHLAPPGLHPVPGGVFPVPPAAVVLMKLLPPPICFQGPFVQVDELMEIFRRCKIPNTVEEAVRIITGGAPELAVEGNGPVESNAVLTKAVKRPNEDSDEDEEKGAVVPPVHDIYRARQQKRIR
UniProt Q14999: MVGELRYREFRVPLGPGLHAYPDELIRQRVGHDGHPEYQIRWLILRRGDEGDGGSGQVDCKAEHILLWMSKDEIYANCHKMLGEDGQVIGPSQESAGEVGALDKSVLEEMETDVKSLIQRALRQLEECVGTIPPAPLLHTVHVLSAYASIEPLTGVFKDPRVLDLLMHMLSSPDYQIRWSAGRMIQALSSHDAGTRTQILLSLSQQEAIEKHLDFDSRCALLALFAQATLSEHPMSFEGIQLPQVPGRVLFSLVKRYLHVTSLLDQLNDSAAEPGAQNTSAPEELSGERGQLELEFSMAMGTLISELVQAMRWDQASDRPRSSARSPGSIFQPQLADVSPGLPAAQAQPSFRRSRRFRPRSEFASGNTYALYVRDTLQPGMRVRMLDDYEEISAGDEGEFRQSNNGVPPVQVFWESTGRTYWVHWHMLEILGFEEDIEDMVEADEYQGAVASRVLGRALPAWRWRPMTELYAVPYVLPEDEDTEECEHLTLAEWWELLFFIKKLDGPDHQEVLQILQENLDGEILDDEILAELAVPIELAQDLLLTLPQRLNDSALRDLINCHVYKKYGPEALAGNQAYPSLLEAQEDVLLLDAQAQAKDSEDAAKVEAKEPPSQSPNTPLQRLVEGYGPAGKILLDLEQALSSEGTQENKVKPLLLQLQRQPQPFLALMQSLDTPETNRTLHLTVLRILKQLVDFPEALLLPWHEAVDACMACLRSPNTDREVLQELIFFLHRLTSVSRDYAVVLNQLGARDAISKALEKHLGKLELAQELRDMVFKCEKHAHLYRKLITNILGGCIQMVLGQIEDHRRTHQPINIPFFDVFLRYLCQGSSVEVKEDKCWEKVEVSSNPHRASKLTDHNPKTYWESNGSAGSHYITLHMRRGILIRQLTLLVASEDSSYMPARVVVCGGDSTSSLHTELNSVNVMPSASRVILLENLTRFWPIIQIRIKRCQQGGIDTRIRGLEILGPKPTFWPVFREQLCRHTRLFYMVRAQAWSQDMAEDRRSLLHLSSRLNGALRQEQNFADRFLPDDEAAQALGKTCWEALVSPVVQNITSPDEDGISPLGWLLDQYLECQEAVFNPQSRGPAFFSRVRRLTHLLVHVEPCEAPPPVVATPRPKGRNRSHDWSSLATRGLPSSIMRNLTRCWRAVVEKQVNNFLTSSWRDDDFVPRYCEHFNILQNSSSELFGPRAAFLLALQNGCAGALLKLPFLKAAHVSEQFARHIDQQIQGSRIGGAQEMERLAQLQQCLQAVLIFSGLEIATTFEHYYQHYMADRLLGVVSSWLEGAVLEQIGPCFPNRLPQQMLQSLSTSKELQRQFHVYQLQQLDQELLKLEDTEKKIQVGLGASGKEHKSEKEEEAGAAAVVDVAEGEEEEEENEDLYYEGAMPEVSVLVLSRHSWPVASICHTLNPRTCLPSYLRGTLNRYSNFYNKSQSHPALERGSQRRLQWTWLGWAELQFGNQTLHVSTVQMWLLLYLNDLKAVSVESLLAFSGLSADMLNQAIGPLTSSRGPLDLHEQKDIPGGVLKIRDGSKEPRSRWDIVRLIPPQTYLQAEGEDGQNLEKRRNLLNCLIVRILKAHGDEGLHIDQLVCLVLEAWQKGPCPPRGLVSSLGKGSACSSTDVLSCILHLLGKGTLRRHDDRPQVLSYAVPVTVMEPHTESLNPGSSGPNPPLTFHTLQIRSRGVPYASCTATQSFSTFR
UniProt Q6UW02: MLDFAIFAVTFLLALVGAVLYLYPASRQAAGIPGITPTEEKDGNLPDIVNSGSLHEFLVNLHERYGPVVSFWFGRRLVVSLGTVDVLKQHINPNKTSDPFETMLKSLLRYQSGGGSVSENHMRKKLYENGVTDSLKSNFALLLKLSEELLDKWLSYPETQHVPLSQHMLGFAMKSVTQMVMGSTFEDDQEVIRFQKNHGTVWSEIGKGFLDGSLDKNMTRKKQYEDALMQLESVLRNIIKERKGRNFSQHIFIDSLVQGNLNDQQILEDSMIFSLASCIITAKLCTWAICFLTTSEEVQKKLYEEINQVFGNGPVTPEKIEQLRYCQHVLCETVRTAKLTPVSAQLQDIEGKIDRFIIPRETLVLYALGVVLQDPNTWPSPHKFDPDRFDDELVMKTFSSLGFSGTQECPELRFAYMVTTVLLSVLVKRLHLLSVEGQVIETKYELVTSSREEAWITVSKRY
UniProt P16220: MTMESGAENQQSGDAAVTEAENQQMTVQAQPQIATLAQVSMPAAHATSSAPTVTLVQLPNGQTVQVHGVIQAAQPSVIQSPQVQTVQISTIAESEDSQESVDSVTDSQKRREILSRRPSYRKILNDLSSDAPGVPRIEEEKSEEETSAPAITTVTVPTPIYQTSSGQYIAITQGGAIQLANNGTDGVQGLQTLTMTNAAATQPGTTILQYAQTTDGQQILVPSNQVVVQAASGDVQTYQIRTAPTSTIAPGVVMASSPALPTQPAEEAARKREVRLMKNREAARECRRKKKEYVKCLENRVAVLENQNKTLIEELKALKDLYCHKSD

Tests used:
Test in all cases: log2 fold change, soluble protein after heating vs DMSO (PISA); higher = thermal stabilisation; K562 lysate, 10 uM; active = over 0.2 and 3.5 SD of the protein, either way, in both replicates (recomputed)
[1] = compound: CN1CC[C@H](c2c(O)cc(O)c3c(=O)cc(-c4ccccc4Cl)oc23)[C@H](O)C1 [alvocidib]
How it was run: (§1)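 Log-two fold change in thermal stability relative to solvent controls is reported from duplicates. For each sample, crude K562 extract from dounce-homogenised pellets in PBS pH 7.4 with 1 mM MgCl2, at 1 mg/mL protein, was treated with 10 μM compound for 30 min. Aliquots heated for 3 min across 48°C-58°C were pooled, brought to 0.5% NP-40 at 4°C and cleared at 21,000xg for 90 min. The supernatant was quantified by TMTpro 16plex LC-MS/MS with channel sums equalised.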

[2] = compound: CN1CCc2c(c3ccccc3n2Cc2ccc(C(=O)NO)cc2)C1 [Tubastatin A]
How it was run: as §1

[3] = compound: CNC(=O)C1=CC=CC=C1NC2=NC(=NC=C2Cl)NC3=C(C=C(C=C3)N4CCOCC4)OC
How it was run: as §1

[4] = compound: CNC(=O)c1ccc(Nc2ncc(C(F)(F)F)c(NCc3nccnc3N(C)S(C)(=O)=O)n2)cc1 [defactinib]
How it was run: as §1

[5] = compound: CNc1nc(-c2ccc3c(N)n[nH]c3c2)cc(N2C[C@@H](C(=O)NC3CCCCC3)CC[C@H]2C)n1
How it was run: as §1

[6] = compound: COC(=O)N[C@@H](C)CNc1nccc(-c2cn(C(C)C)nc2-c2cc(Cl)cc(NS(C)(=O)=O)c2F)n1 [encorafenib]
How it was run: as §1

[7] = compound: COC(=O)[C@H](CCSC)NC(=O)C1=C(C=C(C=C1)NC[C@H](CS)N)C2=CC=CC=C2
How it was run: as §1

[8] = compound: COc1cc(Nc2ncc3c(n2)-c2ccc(Cl)cc2C(c2c(F)cccc2OC)=NC3)ccc1C(=O)O [alisertib]
How it was run: as §1

[9] = compound: COc1cc2nc(-c3cc(F)ccc3O)nc(N[C@@H]3CNC[C@H]3C(C)(C)O)c2cc1OC
How it was run: as §1

[10] = compound: COc1cc2ncnc(Nc3ccc(F)c(Cl)c3)c2cc1OCCCN1CCOCC1 [gefitinib]
How it was run: as §1

[11] = compound: CS(=O)(=O)CCNCc1ccc(-c2ccc3ncnc(Nc4ccc(OCc5cccc(F)c5)c(Cl)c4)c3c2)o1 [lapatinib]
How it was run: as §1

[12] = compound: CS(=O)(=O)N1CCN(Cc2cc3nc(-c4cccc5[nH]ncc45)nc(N4CCOCC4)c3s2)CC1 [pictilisib]
How it was run: as §1

[13] = compound: C[C@@H](Oc1cc(-c2cnn(C3CCNCC3)c2)cnc1N)c1c(Cl)ccc(F)c1Cl [crizotinib]
How it was run: as §1

[14] = compound: C[C@H](C1=CC=C(C=C1)C(=O)NC2=C3C=CNC3=NC=C2)N
How it was run: as §1

[15] = compound: C[C@H](Nc1ncnc2nc[nH]c12)c1cc2cccc(Cl)c2c(=O)n1-c1ccccc1 [duvelisib]
How it was run: as §1

[16] = compound: Cc1cc(Nc2cc(CN3CCOCC3)c3nc(C)c(Cc4ccc(Cl)cc4F)n3n2)n[nH]1 [gandotinib]
How it was run: as §1

[17] = compound: Cc1cc(Nc2cc(N3CCN(C)CC3)nc(Sc3ccc(NC(=O)C4CC4)cc3)n2)n[nH]1 [tozasertib]
How it was run: as §1

[18] = compound: Cc1ccc(-n2nc(C(C)(C)C)cc2NC(=O)Nc2ccc(OCCN3CCOCC3)c3ccccc23)cc1 [doramapimod]
How it was run: as §1

[19] = compound: Cc1ccc(NC(=O)c2ccc(CN3CC[C@H](N(C)C)C3)c(C(F)(F)F)c2)cc1Nc1nccc(-c2cncnc2)n1 [bafetinib]
How it was run: as §1

[20] = compound: Cc1cccc(CC(=O)N2CCc3c2ccc(-c2cn(C)c4ncnc(N)c24)c3F)n1
How it was run: as §1

Measured: log2 fold change

CST3 (UniProt P01034)
inactive: [1] -0.096 | [2] 0.151 | [3] -0.018 | [4] -0.042 | [5] -0.049 | [6] 0.04 | [7] -0.022 | [8] 0.046 | [9] 0.021 | [10] 0.025 | [11] 0.05 | [12] 0.019 | [13] -0.03 | [14] 0.029 | [15] -0.072 | [16] -0.005 | [17] 0.151 | [18] 0.044 | [19] 0.016 | [20] 0.137

CYFIP2 (UniProt Q96F07)
inactive: [1] -0.008 | [2] 0.036 | [3] -0.019 | [4] -0.015 | [5] -0.011 | [6] 0.014 | [7] -0.033 | [8] 0.004 | [9] 0.011 | [10] 0.004 | [11] -0.025 | [12] -0.024 | [13] -0.021 | [14] -0.026 | [15] -0.022 | [16] 0.012 | [17] -0.013 | [18] 0.006 | [19] -0.029 | [20] 0.014

CRIPT (UniProt Q9P021)
inactive: [1] 0.071 | [2] 0.11 | [3] -0.016 | [4] 0.063 | [5] 0.044 | [6] -0.039 | [7] -0.029 | [8] 0.01 | [9] -0.155 | [10] -0.014 | [11] 0.15 | [12] -0.128 | [13] 0 | [14] 0.02 | [15] 0.016 | [16] 0.022 | [17] 0.009 | [18] -0.027 | [19] -0.17 | [20] -0.049

CRPPA (UniProt A4D126)
inactive: [1] -0.022 | [2] 0.032 | [3] -0.014 | [4] -0.015 | [5] -0.016 | [6] 0.012 | [7] -0.063 | [8] 0.003 | [9] 0.014 | [10] -0.006 | [11] -0.011 | [12] -0.065 | [13] -0.018 | [14] -0.02 | [15] 0.016 | [16] 0.015 | [17] -0.022 | [18] 0.016 | [19] 0.008 | [20] 0.005

CSTF2 (UniProt P33240)
inactive: [1] -0.023 | [2] 0.011 | [3] 0.014 | [4] -0.016 | [5] 0.024 | [6] -0.009 | [7] -0.099 | [8] 0.03 | [9] 0.011 | [10] 0.008 | [11] -0.006 | [12] -0.049 | [13] 0.003 | [14] -0.025 | [15] 0.044 | [16] 0.051 | [17] 0.033 | [18] 0.036 | [19] 0.03 | [20] -0.001

CYB5B (UniProt O43169)
inactive: [1] 0.04 | [2] 0.092 | [3] 0.047 | [4] 0.032 | [5] 0.129 | [6] 0.038 | [7] 0.012 | [8] 0.048 | [9] -0.005 | [10] -0.102 | [11] -0.02 | [12] -0.034 | [13] 0.046 | [14] 0.054 | [15] -0.038 | [16] 0.009 | [17] -0.024 | [18] -0.077 | [19] 0.01 | [20] 0.066

CUL4A (UniProt Q13619)
inactive: [1] 0.003 | [2] 0.022 | [3] 0.006 | [4] -0.012 | [5] 0.037 | [6] 0.012 | [7] 0.046 | [8] -0.007 | [9] -0.005 | [10] -0.004 | [11] -0.008 | [12] -0.023 | [13] -0.021 | [14] -0.029 | [15] -0.026 | [16] -0.019 | [17] -0.016 | [18] 0.018 | [19] -0.021 | [20] 0.036

CUSTOS (UniProt Q96C57)
inactive: [1] -0.033 | [2] -0.016 | [3] 0.029 | [4] -0.002 | [5] 0.026 | [6] 0.06 | [7] -0.044 | [8] 0.037 | [9] 0.004 | [10] -0.01 | [11] -0.003 | [12] 0.01 | [13] -0.015 | [14] 0.006 | [15] -0.01 | [16] 0.097 | [17] -0.015 | [18] 0.031 | [19] -0.024 | [20] 0.002

CSTF3 (UniProt Q12996)
inactive: [1] 0.047 | [2] -0.07 | [3] 0.01 | [4] 0.012 | [5] -0.037 | [6] 0.003 | [7] 0.027 | [8] 0.002 | [9] -0.015 | [10] 0.003 | [11] 0.002 | [12] -0.037 | [13] -0.032 | [14] 0.022 | [15] -0.018 | [16] -0.086 | [17] 0.025 | [18] 0.028 | [19] -0.044 | [20] -0.028

CUL7 isoform 2 (UniProt Q14999)
inactive: [1] 0.078 | [2] 0 | [3] -0.046 | [4] -0.053 | [5] -0.04 | [6] 0.028 | [7] 0.157 | [8] -0.009 | [9] -0.054 | [10] -0.194 | [11] 0.021 | [12] -0.014 | [13] -0.016 | [14] 0.15 | [15] -0.073 | [16] -0.097 | [17] -0.054 | [18] -0.047 | [19] -0.095 | [20] -0.01

CTNNA2 (UniProt P26232)
inactive: [1] -0.052 | [2] 0.045 | [3] 0.044 | [4] -0.024 | [5] 0.021 | [6] 0.011 | [7] -0.039 | [8] 0.009 | [9] 0 | [10] -0.08 | [11] -0.023 | [12] -0.006 | [13] -0.024 | [14] -0.118 | [15] 0.035 | [16] 0.042 | [17] 0.007 | [18] 0.009 | [19] -0.062 | [20] 0.059

CYP20A1 (UniProt Q6UW02)
inactive: [1] -0.037 | [2] 0.057 | [3] -0.001 | [4] 0.019 | [5] -0.05 | [6] 0.002 | [7] 0.019 | [8] -0.008 | [9] 0.032 | [10] 0.031 | [11] -0.04 | [12] -0.013 | [13] -0.011 | [14] -0.048 | [15] -0.043 | [16] -0.051 | [17] 0.023 | [18] 0.015 | [19] -0.018 | [20] 0.009

Four neighbouring records from above:
CYB5B (UniProt O43169)
inactive: [1] 0.04 | [2] 0.092 | [3] 0.047 | [4] 0.032 | [5] 0.129 | [6] 0.038 | [7] 0.012 | [8] 0.048 | [9] -0.005 | [10] -0.102 | [11] -0.02 | [12] -0.034 | [13] 0.046 | [14] 0.054 | [15] -0.038 | [16] 0.009 | [17] -0.024 | [18] -0.077 | [19] 0.01 | [20] 0.066

CUL4A (UniProt Q13619)
inactive: [1] 0.003 | [2] 0.022 | [3] 0.006 | [4] -0.012 | [5] 0.037 | [6] 0.012 | [7] 0.046 | [8] -0.007 | [9] -0.005 | [10] -0.004 | [11] -0.008 | [12] -0.023 | [13] -0.021 | [14] -0.029 | [15] -0.026 | [16] -0.019 | [17] -0.016 | [18] 0.018 | [19] -0.021 | [20] 0.036

CUSTOS (UniProt Q96C57)
inactive: [1] -0.033 | [2] -0.016 | [3] 0.029 | [4] -0.002 | [5] 0.026 | [6] 0.06 | [7] -0.044 | [8] 0.037 | [9] 0.004 | [10] -0.01 | [11] -0.003 | [12] 0.01 | [13] -0.015 | [14] 0.006 | [15] -0.01 | [16] 0.097 | [17] -0.015 | [18] 0.031 | [19] -0.024 | [20] 0.002

CSTF3 (UniProt Q12996)
inactive: [1] 0.047 | [2] -0.07 | [3] 0.01 | [4] 0.012 | [5] -0.037 | [6] 0.003 | [7] 0.027 | [8] 0.002 | [9] -0.015 | [10] 0.003 | [11] 0.002 | [12] -0.037 | [13] -0.032 | [14] 0.022 | [15] -0.018 | [16] -0.086 | [17] 0.025 | [18] 0.028 | [19] -0.044 | [20] -0.028

Following part

CRLF3 (UniProt Q8IUI8)
inactive: [1] -0.02 | [2] -0.036 | [3] 0.007 | [4] -0.019 | [5] 0.018 | [6] -0.01 | [7] 0.166 | [8] 0.01 | [9] 0.02 | [10] -0.005 | [11] 0.007 | [12] -0.008 | [13] -0.028 | [14] -0.036 | [15] -0.017 | [16] 0.048 | [17] -0.021 | [18] 0.024 | [19] -0.015 | [20] 0.096

CREB1 (UniProt P16220)
inactive: [1] -0.032 | [2] 0.011 | [3] 0.011 | [4] -0.019 | [5] 0.01 | [6] -0.009 | [7] -0.033 | [8] -0.005 | [9] -0.004 | [10] 0.024 | [11] -0.018 | [12] 0.041 | [13] 0.063 | [14] 0.002 | [15] -0.036 | [16] -0.008 | [17] 0.068 | [18] 0.013 | [19] 0.033 | [20] -0.038

CSE1L (UniProt P55060)
inactive: [1] 0.002 | [2] -0.009 | [3] -0.002 | [4] -0.003 | [5] -0.002 | [6] -0.041 | [7] 0.017 | [8] -0.001 | [9] 0.021 | [10] -0.009 | [11] -0.04 | [12] -0.006 | [13] -0.014 | [14] -0.038 | [15] -0.005 | [16] -0.073 | [17] -0.018 | [18] 0.009 | [19] -0.022 | [20] 0.005
